The list does not hold the whole screen: it is rich in T/C values a quarter to a half above the control, in often repeated tests (any T/C) and in doses without a T/C. Other doses and runs of a compound stand elsewhere. T/C: endpoint of the treated group in % of that of the vehicle group. Some doses have a count of surviving animals in place of a T/C: the source holds a T/C of zero for them, seemingly a mark for toxic or unscored doses. Some doses without a T/C left all or most animals alive at the check, yet need not have been tolerated: the source hardly ever lists a survival T/C far under the control, and the zero likely stands for such cases as well. Counts of survivors are from the toxicity check (mostly the fifth day) where no day follows; animals may have died later. Schedule codes are those of the source, taken here to give the interval after Q, in days (D) or hours (H), and the number of doses after X. Some molecules as drawn cover several salts, stereoisomers or complexes of the source; a dose is that of the sample tested. For survival time, this PubChem deposit counts one and a half times the control or more as active, and values a quarter to a half above the control carry no call in these data; other NCI protocols may use other cut-offs. Some T/C values are followed by the survivors on the day toxicity was checked, most often the fifth; without a count, all were alive then.
Tested on: BDF1 mice, P388 leukemia ip, median survival T/C
Test: NCI In Vivo Anticancer Drug Screen. Data for tumor model P388 Leukemia (intraperitoneal) in B6D2F1 (BDF1) mice
Details: T/C endpoint: median survival time, higher T/C = longer survival
In short: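 Each value expresses how treatment altered survival: treated-mouse outcome over vehicle-mouse outcome, both groups bearing the transplanted tumour.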

[1] = dose: 100.0 mg/kg/injection, schedule: Q01DX009 (ip), vehicle: Klucel (hydroxypropylcellulose) (HPC)
[2] = dose: 100.0 mg/kg/injection, schedule: Q04DX003 (ip), vehicle: Klucel (hydroxypropylcellulose) (HPC)
[3] = dose: 200.0 mg/kg/injection, schedule: Q01DX009 (ip), vehicle: Klucel (hydroxypropylcellulose) (HPC)
[4] = dose: 400.0 mg/kg/injection, schedule: Q04DX003 (ip), vehicle: Klucel (hydroxypropylcellulose) (HPC)
[5] = dose: 100.0 mg/kg/injection, schedule: Q01DX009 (ip), vehicle: saline with Tween-80

For `Cc1cc(N)c2cc(NC(=O)CCCCCCCCC(=O)Nc3ccc4nc(C)cc(N)c4c3)ccc2n1`, the T/C (dose: 12.5 mg/kg/injection, schedule: Q01DX009 (ip), vehicle: Klucel (hydroxypropylcellulose) (HPC)) was 140 % of control, the T/C (dose: 19.0 mg/kg/injection, schedule: Q04DX003 (ip), vehicle: Klucel (hydroxypropylcellulose) (HPC)) was 140 % of control and the T/C (dose: 25.0 mg/kg/injection, schedule: Q01DX009 (ip), vehicle: Klucel (hydroxypropylcellulose) (HPC)) was 145 % of control. For the same compound, the T/C (dose: 29.0 mg/kg/injection, schedule: Q04DX003 (ip), vehicle: Klucel (hydroxypropylcellulose) (HPC)) was 145 % of control [5 of 6 alive], the T/C (dose: 65.0 mg/kg/injection, schedule: Q04DX003 (ip), vehicle: Klucel (hydroxypropylcellulose) (HPC)) was 129 % of control and the T/C [1] was 140 % of control [5 of 6 alive]. The survivor count [1] was 4 of 6, the T/C [2] was 125 % of control and the T/C [3] was 145 % of control. The survivor count [3] was 0 of 6.

`CC(=O)Nc1ccc(OCCOC(=O)Nc2ccc(C)cc2[N+](=O)[O-])cc1` was tested, and the survivor count (dose: 50.0 mg/kg/injection, schedule: Q01DX009 (ip), vehicle: Klucel (hydroxypropylcellulose) (HPC)) was 6 of 6.

`CC1=[N+](C)C(C)(C)CC(C)O1` (stereo not drawn) was tested, and the survivor count (dose: 11.0 mg/kg/injection, schedule: Q01DX009 (ip), vehicle: saline) was 6 of 6, the T/C (dose: 25.0 mg/kg/injection, schedule: Q01DX009 (ip), vehicle: saline) was 127 % of control and the survivor count (dose: 90.0 mg/kg/injection, schedule: Q01DX009 (ip), vehicle: saline) was 0 of 6. For the same compound, the survivor count (dose: 135.0 mg/kg/injection, schedule: Q01DX009 (ip), vehicle: saline) was 0 of 6.

With `COc1cc(NS(C)(=O)=O)ccc1N` the survivor count (dose: 200.0 mg/kg/injection, schedule: Q04DX003 (ip), vehicle: Klucel (hydroxypropylcellulose) (HPC)) was 4 of 6, the survivor count (dose: 400.0 mg/kg/injection, schedule: Q01DX009 (ip), vehicle: Klucel (hydroxypropylcellulose) (HPC)) was 0 of 6 and the survivor count [4] was 0 of 6.

For `COc1cc2c(cc1OC)C(c1ccc(N=Cc3ccc(Cl)c(Cl)c3)cc1)N(C(=S)Nc1cc(Cl)ccc1Cl)CC2` (stereo not drawn), the survivor count [5] was 6 of 6.

`O=C(CCCN1CCC(O)(c2cccc(C(F)(F)F)c2)CC1)c1ccc(F)cc1` was tested, and the survivor count (dose: 37.5 mg/kg/injection, schedule: Q04DX003 (ip), vehicle: Klucel (hydroxypropylcellulose) (HPC)) was 6 of 6, the survivor count (dose: 75.0 mg/kg/injection, schedule: Q04DX003 (ip), vehicle: Klucel (hydroxypropylcellulose) (HPC)) was 6 of 6 and the survivor count [1] was 0 of 6. For the same compound, the survivor count [2] was 3 of 6.

With `OC(CCl)Cc1ccccc1` (stereo not drawn) the survivor count [5] was 4 of 6.

In the case of `COc1ccc(-c2c(C#N)cnc(C)c2C)c(O)c1OC`, the survivor count (dose: 0.05 mg/kg/injection, schedule: Q01DX009 (ip), vehicle: Klucel (hydroxypropylcellulose) (HPC)) is reported as 5 of 6, the survivor count (dose: 0.1 mg/kg/injection, schedule: Q01DX009 (ip), vehicle: Klucel (hydroxypropylcellulose) (HPC)) is reported as 6 of 6 and the survivor count (dose: 0.4 mg/kg/injection, schedule: Q01DX009 (ip), vehicle: Klucel (hydroxypropylcellulose) (HPC)) is reported as 6 of 6.

With `O=S1(=O)C=Cc2ccccc21` the survivor count [4] was 0 of 6.

In the case of `C[C@]12CC[C@@H]3c4ccc(OC(=O)Cc5ccc(N(CCCl)CCCl)cc5)cc4CC[C@H]3[C@@H]1CC[C@@H]2OC(=O)Cc1ccc(N(CCCl)CCCl)cc1`, the survivor count (dose: 200.0 mg/kg/injection, schedule: Q01DX009 (ip), vehicle: saline with Tween-80) is reported as 6 of 6, the T/C (dose: 256.0 mg/kg/injection, schedule: Q01DX009 (ip), vehicle: Klucel (hydroxypropylcellulose) (HPC)) is reported as 132 % of control and the T/C (dose: 512.0 mg/kg/injection, schedule: Q01DX009 (ip), vehicle: Klucel (hydroxypropylcellulose) (HPC)) is reported as 142 % of control. The T/C (dose: 600.0 mg/kg/injection, schedule: Q04DX003 (ip), vehicle: saline with Tween-80) was 133 % of control.

`COc1cccc2c1C(=O)c1c(O)c3c(c(O)c1C2=O)C[C@@](O)(/C(C)=N/NC(=O)c1ccccc1)C[C@@H]3OC1CC(N(C)C)C(O)C(C)O1` (stereo partly drawn) was tested, and the survivor count (dose: 12.5 mg/kg/injection, schedule: Q01DX009 (ip), vehicle: water) was 5 of 6.

From PubChem BioAssay AID328 (DTP/NCI, 2004)
